One test deals with HA-Sox9 (UniProt P48436). As to the kind of experiment: co-IP; Sox9 and Smad3 co-transfected to wild-type and Mast4-depleted C3H10T1/2 cells, TGF-β1 5 ng/ml for 30 min; Sox9 immunoprecipitated using HA antibody, GFP-Smad3 detected (Fig. 3a).
For the next test, the target named is kinase domain of Mast4 (UniProt O15021). Briefly: co-IP; Supplementary Fig. 16b, c (blots; legend not shown); mapping of the Mast4 domain that binds GSK-3β and Smurf1.
In test [1] the target is Sox9 (co-transfected with Mast4-PDZ, Fig. 2e) (UniProt P48436). Briefly: co-IP; Mast4-PDZ and Sox9 transfected to C3H10T1/2 cells; cell extracts incubated with primary antibody overnight at 4 °C, Dynabeads Protein G, western blot (Fig. 2e).
Test [2] addresses Mast4-PDZ (truncated Mast4 construct containing a DUF, kinase, and PDZ domain; a.a.1-a.a.1229) (UniProt O15021). Briefly: co-IP; Smurf1, Mast4-PDZ and GSK-3β transfected to C3H10T1/2 cells, with CHIR-99021 treatment (10 μM for 9 h); immunoprecipitation assay (Fig. 4f).

By UniProt entry, the sequences of proteins in these tests, tags left out. Residues count along the entry.
UniProt P48436: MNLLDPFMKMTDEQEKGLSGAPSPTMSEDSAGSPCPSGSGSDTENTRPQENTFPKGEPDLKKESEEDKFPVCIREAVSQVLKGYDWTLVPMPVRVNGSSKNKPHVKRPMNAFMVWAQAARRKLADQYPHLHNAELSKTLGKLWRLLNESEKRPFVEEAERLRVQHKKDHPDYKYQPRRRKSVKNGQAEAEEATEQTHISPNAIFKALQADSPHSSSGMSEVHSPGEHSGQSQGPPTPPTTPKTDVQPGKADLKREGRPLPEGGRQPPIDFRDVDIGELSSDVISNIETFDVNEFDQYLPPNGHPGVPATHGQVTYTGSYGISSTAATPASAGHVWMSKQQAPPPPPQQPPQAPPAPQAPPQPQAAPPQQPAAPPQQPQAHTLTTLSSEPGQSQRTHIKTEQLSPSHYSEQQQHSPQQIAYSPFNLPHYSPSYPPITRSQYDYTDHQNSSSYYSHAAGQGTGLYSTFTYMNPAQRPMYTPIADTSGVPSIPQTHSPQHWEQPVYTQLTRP
Mast4-PDZ (truncated Mast4 construct containing a DUF, kinase, and PDZ domain; a.a.1-a.a.1229) (O15021, residues 1-1229): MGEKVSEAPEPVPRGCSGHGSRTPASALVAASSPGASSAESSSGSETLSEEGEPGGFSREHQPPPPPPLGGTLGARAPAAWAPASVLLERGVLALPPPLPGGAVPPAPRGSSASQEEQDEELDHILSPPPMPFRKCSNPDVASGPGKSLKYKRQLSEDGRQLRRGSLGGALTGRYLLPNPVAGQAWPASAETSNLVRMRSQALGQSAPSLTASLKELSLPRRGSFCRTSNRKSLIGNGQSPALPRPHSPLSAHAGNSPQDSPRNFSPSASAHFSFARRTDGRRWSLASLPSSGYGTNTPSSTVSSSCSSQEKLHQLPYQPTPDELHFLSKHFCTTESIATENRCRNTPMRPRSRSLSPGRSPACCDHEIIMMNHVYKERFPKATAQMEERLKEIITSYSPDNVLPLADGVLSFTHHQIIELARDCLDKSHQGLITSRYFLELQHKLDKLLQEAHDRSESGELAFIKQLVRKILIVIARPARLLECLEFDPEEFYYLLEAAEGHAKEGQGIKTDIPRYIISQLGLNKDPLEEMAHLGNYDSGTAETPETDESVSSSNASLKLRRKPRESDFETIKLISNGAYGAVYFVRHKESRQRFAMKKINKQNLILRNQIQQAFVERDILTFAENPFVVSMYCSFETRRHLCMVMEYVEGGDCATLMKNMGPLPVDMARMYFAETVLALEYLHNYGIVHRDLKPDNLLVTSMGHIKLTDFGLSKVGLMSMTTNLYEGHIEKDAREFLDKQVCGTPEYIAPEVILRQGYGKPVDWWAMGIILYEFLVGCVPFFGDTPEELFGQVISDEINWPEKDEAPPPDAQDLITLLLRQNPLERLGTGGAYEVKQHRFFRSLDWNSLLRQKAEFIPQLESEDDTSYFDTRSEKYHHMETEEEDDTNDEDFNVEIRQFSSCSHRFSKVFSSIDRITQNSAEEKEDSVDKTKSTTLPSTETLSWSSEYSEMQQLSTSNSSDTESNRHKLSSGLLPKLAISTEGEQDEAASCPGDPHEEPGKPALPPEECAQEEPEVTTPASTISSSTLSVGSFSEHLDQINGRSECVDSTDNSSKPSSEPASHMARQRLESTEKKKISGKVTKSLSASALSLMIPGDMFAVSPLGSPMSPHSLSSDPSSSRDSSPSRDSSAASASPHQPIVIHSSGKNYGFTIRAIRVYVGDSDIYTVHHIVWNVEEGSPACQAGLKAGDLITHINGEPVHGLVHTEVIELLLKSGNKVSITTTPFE
kinase domain of Mast4 (O15021, residues 570-843): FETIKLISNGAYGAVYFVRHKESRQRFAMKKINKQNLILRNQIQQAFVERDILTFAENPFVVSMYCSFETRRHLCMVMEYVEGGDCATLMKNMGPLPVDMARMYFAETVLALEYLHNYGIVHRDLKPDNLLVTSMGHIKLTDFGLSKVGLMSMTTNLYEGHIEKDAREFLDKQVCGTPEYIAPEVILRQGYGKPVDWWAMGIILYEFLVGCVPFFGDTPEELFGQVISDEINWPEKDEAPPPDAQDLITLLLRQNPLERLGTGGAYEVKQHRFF
UniProt P84022: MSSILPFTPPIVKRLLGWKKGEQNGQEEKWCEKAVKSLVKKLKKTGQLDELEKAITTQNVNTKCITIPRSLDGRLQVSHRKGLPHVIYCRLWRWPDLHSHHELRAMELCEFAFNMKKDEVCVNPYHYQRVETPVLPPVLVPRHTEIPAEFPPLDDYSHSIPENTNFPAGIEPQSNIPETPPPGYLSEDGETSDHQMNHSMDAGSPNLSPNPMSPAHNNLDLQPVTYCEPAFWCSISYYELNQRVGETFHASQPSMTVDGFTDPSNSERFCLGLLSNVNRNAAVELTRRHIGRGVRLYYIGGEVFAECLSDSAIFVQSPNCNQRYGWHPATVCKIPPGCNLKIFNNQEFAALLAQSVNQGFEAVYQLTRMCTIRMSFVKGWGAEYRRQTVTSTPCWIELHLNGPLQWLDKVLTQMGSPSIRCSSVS
UniProt P49841: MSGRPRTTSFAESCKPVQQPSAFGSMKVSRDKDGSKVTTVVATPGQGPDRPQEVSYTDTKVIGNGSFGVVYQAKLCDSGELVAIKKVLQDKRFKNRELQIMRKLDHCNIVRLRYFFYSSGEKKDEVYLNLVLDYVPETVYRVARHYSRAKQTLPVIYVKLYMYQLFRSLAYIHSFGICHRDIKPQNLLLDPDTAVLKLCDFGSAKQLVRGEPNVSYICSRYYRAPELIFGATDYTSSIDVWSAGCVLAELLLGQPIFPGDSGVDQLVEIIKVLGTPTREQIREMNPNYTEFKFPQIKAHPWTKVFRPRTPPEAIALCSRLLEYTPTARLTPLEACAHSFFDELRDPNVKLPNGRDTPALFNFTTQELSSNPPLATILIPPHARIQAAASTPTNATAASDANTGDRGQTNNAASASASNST
UniProt Q9HCE7: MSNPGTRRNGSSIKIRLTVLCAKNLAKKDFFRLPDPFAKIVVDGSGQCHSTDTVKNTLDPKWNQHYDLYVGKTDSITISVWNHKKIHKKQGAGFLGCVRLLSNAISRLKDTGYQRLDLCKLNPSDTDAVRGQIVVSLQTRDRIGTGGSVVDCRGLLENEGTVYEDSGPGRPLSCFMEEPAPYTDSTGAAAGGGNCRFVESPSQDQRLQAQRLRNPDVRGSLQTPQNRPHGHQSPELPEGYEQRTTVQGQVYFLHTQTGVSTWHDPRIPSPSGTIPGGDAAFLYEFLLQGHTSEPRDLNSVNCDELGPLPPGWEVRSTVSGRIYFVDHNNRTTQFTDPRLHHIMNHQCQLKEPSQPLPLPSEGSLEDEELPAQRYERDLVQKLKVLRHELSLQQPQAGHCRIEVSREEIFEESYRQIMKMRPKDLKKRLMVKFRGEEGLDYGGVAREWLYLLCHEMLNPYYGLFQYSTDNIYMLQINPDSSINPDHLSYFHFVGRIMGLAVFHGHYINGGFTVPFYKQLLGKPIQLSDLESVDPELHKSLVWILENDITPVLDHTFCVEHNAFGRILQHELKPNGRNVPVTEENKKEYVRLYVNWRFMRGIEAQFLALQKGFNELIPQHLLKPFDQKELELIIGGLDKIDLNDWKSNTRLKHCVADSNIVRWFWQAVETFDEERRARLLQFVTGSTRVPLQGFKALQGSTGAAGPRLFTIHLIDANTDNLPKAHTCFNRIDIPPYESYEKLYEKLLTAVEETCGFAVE

Binding data for four substances are collected here from article PMC9270402.

No constants are given. Whether binding was seen depends on the method and setting. In cells and extracts the contact can be indirect. Some results given as binding are weak or reduced against the parent protein; the word gives no strength.

Consider GFP-Smad3 (from UniProt P84022 1-425), for which, in the test with HA-Sox9, the binding entry was “binds”. As to “GSK-3β (from UniProt P49841 1-420) (enzyme)”, the binding result in the test with kinase domain of Mast4 was “binds”.

Consider “Mast4-PDZ (truncated Mast4 construct containing a DUF, kinase, and PDZ domain; a.a.1-a.a.1229) (from UniProt O15021 1-1229) (domain or fragment)”, for which the binding entry in test [1] is given as “binds”. Consider “Smurf1 (from UniProt Q9HCE7 1-757) (enzyme)”, for which the binding result (in test [2]; in the test with kinase domain of Mast4) was “binds” in each case.
